The source of these data is article PMC6521077.

Sequences of proteins named here, by UniProt entry; tags and fusion partners are left off.
UniProt Q9Y265: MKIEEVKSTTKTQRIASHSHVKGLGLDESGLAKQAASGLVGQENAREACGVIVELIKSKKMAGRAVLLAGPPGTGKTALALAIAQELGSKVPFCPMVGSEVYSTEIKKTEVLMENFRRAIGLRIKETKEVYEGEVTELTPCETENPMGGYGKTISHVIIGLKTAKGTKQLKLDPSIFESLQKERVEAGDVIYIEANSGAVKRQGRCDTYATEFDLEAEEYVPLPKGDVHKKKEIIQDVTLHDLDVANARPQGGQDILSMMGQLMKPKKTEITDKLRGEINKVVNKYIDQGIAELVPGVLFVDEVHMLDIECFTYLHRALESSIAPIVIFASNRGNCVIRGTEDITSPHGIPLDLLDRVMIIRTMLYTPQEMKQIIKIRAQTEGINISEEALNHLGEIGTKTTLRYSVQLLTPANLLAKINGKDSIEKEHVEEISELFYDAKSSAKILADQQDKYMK
UniProt P18272: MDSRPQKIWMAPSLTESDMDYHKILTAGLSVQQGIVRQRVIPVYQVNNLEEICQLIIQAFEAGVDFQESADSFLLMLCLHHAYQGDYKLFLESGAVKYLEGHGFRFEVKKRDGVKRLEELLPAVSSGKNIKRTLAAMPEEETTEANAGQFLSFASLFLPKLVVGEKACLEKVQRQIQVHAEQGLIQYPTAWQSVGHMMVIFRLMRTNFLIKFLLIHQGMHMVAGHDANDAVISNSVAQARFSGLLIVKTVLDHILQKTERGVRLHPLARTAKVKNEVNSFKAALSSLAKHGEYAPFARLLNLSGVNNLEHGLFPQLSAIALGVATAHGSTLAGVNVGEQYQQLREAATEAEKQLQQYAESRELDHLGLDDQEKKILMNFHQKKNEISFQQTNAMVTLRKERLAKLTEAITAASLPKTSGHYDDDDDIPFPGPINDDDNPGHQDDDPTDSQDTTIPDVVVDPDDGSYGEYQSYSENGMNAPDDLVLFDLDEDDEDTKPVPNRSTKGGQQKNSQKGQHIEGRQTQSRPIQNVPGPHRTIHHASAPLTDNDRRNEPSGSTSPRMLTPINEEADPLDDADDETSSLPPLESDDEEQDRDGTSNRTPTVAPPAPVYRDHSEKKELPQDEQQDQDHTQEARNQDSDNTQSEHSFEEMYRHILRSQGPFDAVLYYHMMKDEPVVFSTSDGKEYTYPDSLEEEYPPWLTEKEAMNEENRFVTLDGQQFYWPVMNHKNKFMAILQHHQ
UniProt Q9Y230: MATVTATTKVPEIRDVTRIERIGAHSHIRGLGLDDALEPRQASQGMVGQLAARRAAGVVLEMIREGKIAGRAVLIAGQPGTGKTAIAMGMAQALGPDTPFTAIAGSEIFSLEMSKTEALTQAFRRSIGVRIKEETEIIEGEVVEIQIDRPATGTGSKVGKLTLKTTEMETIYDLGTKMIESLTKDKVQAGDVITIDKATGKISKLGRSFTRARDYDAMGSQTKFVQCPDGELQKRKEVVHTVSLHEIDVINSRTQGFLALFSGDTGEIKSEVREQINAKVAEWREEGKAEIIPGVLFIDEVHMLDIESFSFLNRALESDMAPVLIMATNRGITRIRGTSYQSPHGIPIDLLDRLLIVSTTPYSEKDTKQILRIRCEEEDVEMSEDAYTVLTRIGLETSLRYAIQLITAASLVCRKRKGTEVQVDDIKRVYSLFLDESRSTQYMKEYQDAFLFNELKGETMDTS

Assay in all cases: co-IP
The target in assay [1] is FLAG-RUVBL1 (pCDNA-3xFLAG-Pontin) (UniProt Q9Y265).
The target in assay [2] is HA-tagged Ebola virus nucleoprotein (pCAGGS-HA-EBOV-NP) (Ebola virus (EBOV)) (UniProt P18272).
The target in assay [3] is HA-RUVBL2 (pCDNA-3xHA-Reptin) (UniProt Q9Y230).

No constants are given. Whether binding was seen depends on the method and setting. In cells and extracts the contact can be indirect. Some binding calls cover weakened binding; strength is not graded here.

“HA-tagged Ebola virus nucleoprotein (pCAGGS-HA-EBOV-NP) (from UniProt P18272 1-739)”: the binding entry in assay [1] is recorded as “binds”. Take “FLAG-RUVBL1 (pCDNA-3xFLAG-Pontin) (from UniProt Q9Y265 1-456)”: the binding entry in assay [2] was “binds”.

In the case of “V5-tagged Ebola virus nucleoprotein (pCAGGS-NP-V5) (from UniProt P18272 1-739)”, in assay [3], the binding result is recorded as “binds”.
